{
  "sequences": {"note": "Protein sequences, listed by entry. Tags and fused reporters are not part of them.", "UniProt Q8N122": "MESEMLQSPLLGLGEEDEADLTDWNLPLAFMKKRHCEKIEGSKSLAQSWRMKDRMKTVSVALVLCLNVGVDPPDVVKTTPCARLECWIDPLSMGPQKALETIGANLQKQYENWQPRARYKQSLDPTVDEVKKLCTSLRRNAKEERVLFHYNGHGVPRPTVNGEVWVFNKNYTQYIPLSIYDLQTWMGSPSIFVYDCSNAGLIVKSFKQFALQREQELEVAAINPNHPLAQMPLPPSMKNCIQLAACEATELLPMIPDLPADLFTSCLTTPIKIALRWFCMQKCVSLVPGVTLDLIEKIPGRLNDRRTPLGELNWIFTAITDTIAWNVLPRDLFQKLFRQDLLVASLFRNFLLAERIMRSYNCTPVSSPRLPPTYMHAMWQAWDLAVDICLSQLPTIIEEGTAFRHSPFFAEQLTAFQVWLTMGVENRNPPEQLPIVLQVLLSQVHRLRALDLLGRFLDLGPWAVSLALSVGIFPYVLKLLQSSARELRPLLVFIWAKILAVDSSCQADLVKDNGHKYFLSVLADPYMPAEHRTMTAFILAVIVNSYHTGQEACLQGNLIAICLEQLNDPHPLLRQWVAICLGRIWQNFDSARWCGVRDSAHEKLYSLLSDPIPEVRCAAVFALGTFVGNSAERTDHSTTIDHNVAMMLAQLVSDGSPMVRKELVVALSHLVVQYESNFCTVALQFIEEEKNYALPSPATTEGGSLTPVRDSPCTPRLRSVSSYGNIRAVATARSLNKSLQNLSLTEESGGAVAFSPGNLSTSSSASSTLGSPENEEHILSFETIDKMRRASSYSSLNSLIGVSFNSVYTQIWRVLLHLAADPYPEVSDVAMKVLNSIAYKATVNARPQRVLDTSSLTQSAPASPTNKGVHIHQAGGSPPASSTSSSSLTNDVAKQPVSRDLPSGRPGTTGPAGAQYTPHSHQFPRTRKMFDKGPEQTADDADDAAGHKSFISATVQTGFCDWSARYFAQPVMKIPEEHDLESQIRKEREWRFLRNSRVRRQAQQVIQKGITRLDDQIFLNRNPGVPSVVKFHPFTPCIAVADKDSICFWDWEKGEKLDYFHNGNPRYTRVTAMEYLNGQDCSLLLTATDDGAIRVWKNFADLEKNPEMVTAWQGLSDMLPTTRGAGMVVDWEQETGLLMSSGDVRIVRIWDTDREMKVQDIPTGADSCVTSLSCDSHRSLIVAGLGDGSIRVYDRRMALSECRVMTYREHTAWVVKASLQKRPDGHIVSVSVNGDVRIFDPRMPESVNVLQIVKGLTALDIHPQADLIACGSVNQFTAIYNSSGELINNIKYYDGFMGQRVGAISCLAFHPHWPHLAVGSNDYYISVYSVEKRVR"},
  "source": "paper PMC10709582",
  "key": {"[1]": {"biological_target": "T1, Flag-FilGAP (WT) (UniProt Q8N264)", "T1 sequence": "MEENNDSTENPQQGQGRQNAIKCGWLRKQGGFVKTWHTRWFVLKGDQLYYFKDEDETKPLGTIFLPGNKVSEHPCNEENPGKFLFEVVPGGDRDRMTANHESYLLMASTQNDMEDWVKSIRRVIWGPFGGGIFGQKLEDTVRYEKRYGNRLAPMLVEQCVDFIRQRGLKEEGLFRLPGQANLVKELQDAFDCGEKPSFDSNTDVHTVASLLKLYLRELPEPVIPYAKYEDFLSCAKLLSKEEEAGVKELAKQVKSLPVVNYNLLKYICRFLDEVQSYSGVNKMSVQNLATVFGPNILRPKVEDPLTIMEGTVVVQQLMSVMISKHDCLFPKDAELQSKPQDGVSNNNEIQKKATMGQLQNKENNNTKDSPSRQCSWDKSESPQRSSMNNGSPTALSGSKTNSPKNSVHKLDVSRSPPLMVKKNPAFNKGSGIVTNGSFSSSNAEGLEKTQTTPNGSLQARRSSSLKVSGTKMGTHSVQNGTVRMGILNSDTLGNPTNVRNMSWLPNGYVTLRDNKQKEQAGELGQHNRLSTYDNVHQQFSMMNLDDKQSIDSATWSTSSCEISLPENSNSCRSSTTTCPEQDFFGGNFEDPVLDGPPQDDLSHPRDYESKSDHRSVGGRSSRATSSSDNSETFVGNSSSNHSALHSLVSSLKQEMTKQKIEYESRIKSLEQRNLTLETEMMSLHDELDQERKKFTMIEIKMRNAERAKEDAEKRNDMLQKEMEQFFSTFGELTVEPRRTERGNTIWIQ", "experiment": "co-IP; HEK293T cells co-transfected; lysed in CHAPS buffer; anti-Flag agarose beads, 1 h at 4 °C; blot with anti-Raptor or anti-Rictor antibody"}, "[2]": {"biological_target": "T2, GST-FilGAP (373-748aa) (UniProt Q8N264)", "T2 sequence": "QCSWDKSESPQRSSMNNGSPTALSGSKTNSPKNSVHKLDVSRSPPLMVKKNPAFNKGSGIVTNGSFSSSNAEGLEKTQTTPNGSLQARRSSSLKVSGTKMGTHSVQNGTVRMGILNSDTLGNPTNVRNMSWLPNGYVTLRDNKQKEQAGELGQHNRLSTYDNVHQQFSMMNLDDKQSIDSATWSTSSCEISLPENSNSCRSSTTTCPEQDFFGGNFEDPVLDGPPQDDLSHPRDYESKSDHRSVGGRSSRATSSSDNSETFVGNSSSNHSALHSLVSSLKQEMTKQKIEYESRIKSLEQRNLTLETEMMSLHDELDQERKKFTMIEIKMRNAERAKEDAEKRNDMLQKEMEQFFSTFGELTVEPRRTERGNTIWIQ", "experiment": "pull-down; purified GST-FilGAP (373-748aa) on glutathione Sepharose with HEK293T lysate in CHAPS buffer (0.3% CHAPS, 0.1 M NaCl, pH 7.5), 60 min at 4 °C; endogenous proteins blotted; also after siRNA against Raptor or Rictor, 100 nM Rapamycin or 500 nM Torin-1 for 1 h, or starvation in EBSS then DMEM with or without insulin; only the target purified"}, "[3]": {"biological_target": "T2, GST-FilGAP (373-748aa)", "experiment": "pull-down; GST-FilGAP (373-748aa) on glutathione sepharose with HEK293T cells lysed in buffer containing Triton X-100 (disrupts the mTOR complexes); only the target purified"}},
  "note": "No constants are given. Whether binding was seen depends on the method and setting. In cells and extracts the contact can be indirect. Some results given as binding are weak or reduced against the parent protein; the word gives no strength. Sequences can lack the tags named with a protein.",
  "data": [
    {"substance": "Myc-Raptor (from UniProt Q8N122 1-1335)", "values": [
      {"measurement": "binding", "setting": "[1]", "result": "binds"}
    ]},
    {"substance": "Raptor (endogenous, HEK293T) (from UniProt Q8N122 1-1335)", "values": [
      {"measurement": "binding", "setting": "[2]", "result": "binds"},
      {"measurement": "binding", "setting": "[3]", "result": "binds"}
    ]}
  ]
}
